PubChem BioAssay AID1259308, NCATS, 2017
In all, the deposit lists about 59,000 reagents; below is a random part of them. Over the whole deposit, about 1,510 (2.6%) are marked active. 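Calls use total luciferase alone and ignore viability, so some active siRNAs may act by altering cell number.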 The numbers tell different reagents against one gene apart. Not all columns of the deposit are shown.

- Screen: 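Knock-downs that increase output of a recombinant reporter protein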 (primary screen)
- System: human HEK293 embryonic kidney cells stably expressing firefly luciferase (HEK-CMV-Luc2-Hygro)
- Knock-down reagent: single siRNA against human genes, 0.8 pmol siRNA per well
- Time to read-out: 72 h
- Measurement: 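Luciferase light (ONE-Glo) measured on one replicate plate set and viability (CellTiter-Glo) on the other, scaled to a negative control siRNA, with robust z-scores and luciferase per cell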
- Reading the numbers: total luciferase, z-score and total luciferase, % of control: higher = more reporter protein produced
- Hit rule: 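An siRNA counts as active if its total luciferase robust z-score exceeds 3; genes with two or more such siRNAs out of three were retested with fresh siRNAs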
- Calls: active = raised luciferase; inactive = no rise

DRG2 (GeneID 1819) #1
- total luciferase, z-score: -0.501
- total luciferase, % of control: 71.9
- activity call: inactive

DRG2 (GeneID 1819) #2
- total luciferase, z-score: -0.377
- total luciferase, % of control: 74.4
- activity call: inactive

DRG2 (GeneID 1819) #3
- total luciferase, z-score: 0.165
- total luciferase, % of control: 85.2
- activity call: inactive

CCDC117 (GeneID 150275) #1
- total luciferase, z-score: -0.284
- total luciferase, % of control: 76.2
- activity call: inactive

CCDC117 (GeneID 150275) #2
- total luciferase, z-score: -0.533
- total luciferase, % of control: 71.3
- activity call: inactive

CCDC117 (GeneID 150275) #3
- total luciferase, z-score: -1.39
- total luciferase, % of control: 54.3
- activity call: inactive

The list goes on; the last 2 above are carried over.
CCDC117 (GeneID 150275) #2
- total luciferase, z-score: -0.533
- total luciferase, % of control: 71.3
- activity call: inactive

CCDC117 (GeneID 150275) #3
- total luciferase, z-score: -1.39
- total luciferase, % of control: 54.3
- activity call: inactive

LINC03033 (GeneID 400221) #1
- total luciferase, z-score: 0.0282
- total luciferase, % of control: 82.4
- activity call: inactive

LINC03033 (GeneID 400221) #2
- total luciferase, z-score: -1.53
- total luciferase, % of control: 51.4
- activity call: inactive

LINC03033 (GeneID 400221) #3
- total luciferase, z-score: 3
- total luciferase, % of control: 141
- activity call: inactive

FSTL3 (GeneID 10272) #1
- total luciferase, z-score: 0.94
- total luciferase, % of control: 101
- activity call: inactive

FSTL3 (GeneID 10272) #2
- total luciferase, z-score: -0.69
- total luciferase, % of control: 68.2
- activity call: inactive

FSTL3 (GeneID 10272) #3
- total luciferase, z-score: 2.77
- total luciferase, % of control: 137
- activity call: inactive
